The other results are listed elsewhere or left out. These are further read-outs of the screen, such as a control signal, another cell line or another target. No call is given for them. Most of these compounds were active or inconclusive in the main read-out, so they are no random draw. Potencies come from curve fits of mixed quality, noted in brackets.

The nature of the test: S16 Schwann cell PMP22 intronic element beta-lactamase assay (AID 624044). As to conditions: S16 rat Schwann cells, PMP22 element beta-lactamase FRET, 24 h; measured here: 460 nm blue channel. The essentials:
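Rat S16 Schwann cells with beta-Lac driven by a PMP22 intronic element, compound-treated 24 h at 37 °C. LiveBLAzer FRET B/G read: 460 nm normalized to potassium clavulanate vs DMSO; 535 nm FRET as viability; concentration-effect curves classified.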
In the case of `CC[C@@]12CCCN3CCc4c(n(c5ccccc45)C(=O)C1)[C@H]32`, the AC50 is 6 µM [falling, partial curve, poor fit].
With `CC1C(=O)CC2C3(C)CCC2(C(C)C(=O)O)C(=O)C13` (stereo not given) the figure was 14.1 µM [rising, single point]; with `C=C1NC(=O)c2cc(CN(C)c3ccc(C(=O)N[C@@H](CCC(=O)O)C(=O)O)s3)ccc2N1`, 0.00631 µM [falling, full curve].
With `O=C(O)[C@H]1CN(C/C=C/P(=O)(O)O)CCN1` the figure was 25.1 µM [rising, single point]; with `CCCCC[C@H](O)/C=C\[C@@H]1[C@H](O)CC(=O)[C@@H]1CCCCCCC(=O)O`, 0.0301 µM [falling, full curve, poor fit].
